Measurements: publication PMC11397430
No constants are given. Whether binding was seen depends on the method and setting. In cells and extracts the contact can be indirect. Some entries that bind do so weakly or less than the wild type.

By UniProt entry, the sequences of proteins in these tests, tags left out.
UniProt Q96GC6: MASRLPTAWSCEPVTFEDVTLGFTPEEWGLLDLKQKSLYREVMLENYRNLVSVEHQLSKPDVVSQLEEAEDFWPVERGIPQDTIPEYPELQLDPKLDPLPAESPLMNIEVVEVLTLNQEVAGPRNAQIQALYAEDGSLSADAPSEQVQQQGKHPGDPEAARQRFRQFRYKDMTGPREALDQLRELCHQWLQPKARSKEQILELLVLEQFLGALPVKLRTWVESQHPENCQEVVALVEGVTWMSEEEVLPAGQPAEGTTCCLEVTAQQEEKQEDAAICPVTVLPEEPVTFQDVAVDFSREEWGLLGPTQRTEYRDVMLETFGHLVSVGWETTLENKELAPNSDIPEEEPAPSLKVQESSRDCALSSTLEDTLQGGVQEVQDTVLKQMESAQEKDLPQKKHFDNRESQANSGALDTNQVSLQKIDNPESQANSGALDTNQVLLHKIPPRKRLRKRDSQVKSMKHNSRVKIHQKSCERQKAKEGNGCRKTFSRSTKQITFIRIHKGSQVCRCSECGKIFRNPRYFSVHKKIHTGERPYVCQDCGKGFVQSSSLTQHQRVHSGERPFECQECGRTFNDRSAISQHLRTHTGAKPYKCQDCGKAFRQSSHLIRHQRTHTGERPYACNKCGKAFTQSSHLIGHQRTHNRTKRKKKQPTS

Target: ZNF274, full length, HA-tagged (ZNF274-HA); a Flag-tagged copy was coexpressed for the co-IP (human) (UniProt Q96GC6)
Assay: co-IP; HEK293T cells cotransfected with HA- and Flag-tagged ZNF274 constructs, 24 h with doxycycline; lysis in IP buffer (0.5% NP-40, 500 mM Tris pH 7.4, 20 mM EDTA); anti-Flag Sepharose or anti-HA magnetic beads overnight at 4°C; immunoblot for HA, Flag and KAP1

ZNF274, full length, HA-tagged (ZNF274-HA); a Flag-tagged copy was coexpressed for the co-IP (from UniProt Q96GC6 1-653)
binding: binds
